{
  "sequences": {"note": "Amino acid sequences for entries named in this document (tags omitted).", "UniProt Q8VI36": "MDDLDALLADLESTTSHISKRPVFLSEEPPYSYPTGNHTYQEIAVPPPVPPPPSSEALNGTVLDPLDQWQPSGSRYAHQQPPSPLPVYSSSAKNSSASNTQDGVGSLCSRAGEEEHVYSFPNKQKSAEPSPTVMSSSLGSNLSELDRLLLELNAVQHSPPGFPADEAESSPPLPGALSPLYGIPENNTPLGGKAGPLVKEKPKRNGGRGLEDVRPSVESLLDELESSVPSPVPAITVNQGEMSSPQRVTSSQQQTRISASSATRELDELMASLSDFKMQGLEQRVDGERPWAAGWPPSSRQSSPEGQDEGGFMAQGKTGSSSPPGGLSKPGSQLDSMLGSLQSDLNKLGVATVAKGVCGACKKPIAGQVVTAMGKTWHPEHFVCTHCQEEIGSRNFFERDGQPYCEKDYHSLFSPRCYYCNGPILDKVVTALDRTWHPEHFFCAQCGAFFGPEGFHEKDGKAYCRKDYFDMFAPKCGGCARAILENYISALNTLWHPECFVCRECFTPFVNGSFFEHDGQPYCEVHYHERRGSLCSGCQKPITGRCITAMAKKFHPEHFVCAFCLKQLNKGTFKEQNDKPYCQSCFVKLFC"},
  "source": "paper PMC7401804",
  "binders": {"B1": {"name": "HDAC6 (enzyme, UniProt Q9Z2V5 1-1149)", "chain": "MTSTGQDSSTRQRKSRHNPQSPLQESSATLKRGGKKCAVPHSSPNLAEVKKKGKMKKLSQPAEEDLVVGLQGLDLNPETRVPVGTGLVFDEQLNDFHCLWDDSFPESPERLHAIREQLILEGLLGRCVSFQARFAEKEELMLVHSLEYIDLMETTQYMNEGELRVLAETYDSVYLHPNSYSCACLATGSVLRLVDALMGAEIRNGMAVIRPPGHHAQHNLMDGYCMFNHLAVAARYAQKKHRIQRVLIVDWDVHHGQGTQFIFDQDPSVLYFSIHRYEHGRFWPHLKASNWSTIGFGQGQGYTINVPWNQTGMRDADYIAAFLHILLPVASEFQPQLVLVAAGFDALHGDPKGEMAATPAGFAHLTHLLMGLAGGKLILSLEGGYNLRALAKGVSASLHTLLGDPCPMLESCVVPCASAQTSIYCTLEALEPFWEVLERSVETQEEDEVEEAVLEEEEEEGGWEATALPMDTWPLLQNRTGLVYDEKMMSHCNLWDNHHPETPQRILRIMCHLEEVGLAARCLILPARPALDSELLTCHSAEYVEHLRTTEKMKTRDLHREGANFDSIYICPSTFACAKLATGAACRLVEAVLSGEVLNGIAVVRPPGHHAEPNAACGFCFFNSVAVAARHAQIIAGRALRILIVDWDVHHGNGTQHIFEDDPSVLYVSLHRYDRGTFFPMGDEGASSQVGRDAGIGFTVNVPWNGPRMGDADYLAAWHRLVLPIAYEFNPELVLISAGFDAAQGDPLGGCQVTPEGYAHLTHLLMGLAGGRIILILEGGYNLASISESMAACTHSLLGDPPPQLTLLRPPQSGALVSISEVIQVHRKYWRSLRLMKMEDKEECSSSRLVIKKLPPTASPVSAKEMTTPKGKVPEESVRKTIAALPGKESTLGQAKSKMAKAVLAQGQSSEQAAKGTTLDLATSKETVGGATTDLWASAAAPENFPNQTTSVEALGETEPTPPASHTNKQTTGASPLQGVTAQQSLQLGVLSTLELSREAEEAHDSEEGLLGEAAGGQDMNSLMLTQGFGDFNTQDVFYAVTPLSWCPHLMAVCPIPAAGLDVSQPCKTCGTVQENWVCLTCYQVYCSRYVNAHMVCHHEASEHPLVLSCVDLSTWCYVCQAYVHHEDLQDVKNAAHQNKFGEDMPHSH"}},
  "key": {"[1]": {"biological_target": "paxillin (mouse (endogenous in TA muscle)) (UniProt Q8VI36)", "assay": "proximity ligation; Duolink PLA (anti-Mouse MINUS, anti-Rabbit PLUS probes) with antibodies against HDAC6 and paxillin in isolated fibers of mouse TA muscle, counterstained with α-BTX–A488"}, "[2]": {"biological_target": "paxillin (mouse (endogenous in TA muscle)) (UniProt Q8VI36)", "assay": "co-IP; endogenous paxillin immunoprecipitated with an anti-paxillin antibody from solubilized mouse TA skeletal muscle, Dynabeads Protein G; HDAC6 detected by Western blot"}},
  "note": "No constants are given. Whether binding was seen depends on the method and setting. Binding seen in cells or lysates may run through a third protein. Some entries that bind do so weakly or less than the wild type.",
  "data": [
    {"binder": "B1", "values": [
      {"measurement": "binding", "setting": "[1]", "result": "binds"},
      {"measurement": "binding", "setting": "[2]", "result": "binds"}
    ]}
  ]
}
